Results are given in words; binding and its absence hold for the method and conditions named. Binding seen in cells or lysates may run through a third protein. Here binding means that the protein was enriched with, or labelled near, the bait; the list need not be complete.
Target: T1, EVC (endogenous mouse EVC protein) (mouse (endogenous in MEFs)) (UniProt P57680)
T1 sequence: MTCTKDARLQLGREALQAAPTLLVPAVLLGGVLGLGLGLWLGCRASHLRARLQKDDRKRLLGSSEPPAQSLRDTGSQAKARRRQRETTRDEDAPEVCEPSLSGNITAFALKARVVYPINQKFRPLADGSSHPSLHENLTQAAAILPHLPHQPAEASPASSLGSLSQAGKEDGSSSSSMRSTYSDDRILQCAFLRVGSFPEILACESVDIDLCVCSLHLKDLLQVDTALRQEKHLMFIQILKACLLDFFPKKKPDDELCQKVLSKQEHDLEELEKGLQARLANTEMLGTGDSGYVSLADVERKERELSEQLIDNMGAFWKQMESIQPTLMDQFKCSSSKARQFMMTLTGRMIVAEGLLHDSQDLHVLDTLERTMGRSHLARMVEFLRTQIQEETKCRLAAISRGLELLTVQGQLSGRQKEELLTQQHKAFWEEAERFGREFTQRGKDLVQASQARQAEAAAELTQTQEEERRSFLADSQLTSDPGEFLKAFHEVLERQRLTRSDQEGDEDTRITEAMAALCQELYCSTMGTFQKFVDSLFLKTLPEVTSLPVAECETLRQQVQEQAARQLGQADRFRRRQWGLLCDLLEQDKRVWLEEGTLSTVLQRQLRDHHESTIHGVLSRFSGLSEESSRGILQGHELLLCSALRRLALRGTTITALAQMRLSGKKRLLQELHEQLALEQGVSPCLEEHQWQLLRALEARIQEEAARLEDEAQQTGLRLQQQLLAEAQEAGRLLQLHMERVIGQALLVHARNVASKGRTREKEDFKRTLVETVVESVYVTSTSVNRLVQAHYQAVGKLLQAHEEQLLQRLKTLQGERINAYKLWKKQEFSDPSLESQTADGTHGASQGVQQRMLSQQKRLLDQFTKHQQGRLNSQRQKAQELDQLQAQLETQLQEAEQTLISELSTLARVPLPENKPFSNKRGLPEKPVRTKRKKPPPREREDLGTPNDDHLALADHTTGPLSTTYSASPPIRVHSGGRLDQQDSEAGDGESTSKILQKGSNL
Assay: affinity purification with mass spectrometry; mouse monoclonal anti-EVC on Dynabeads; lysates of serum-starved Evc+/+ MEFs, Evc-/- MEFs as negative control; 1X IP buffer with 25 mM NaCl, overnight at 4°C; LC-ESI-MS/MS; n = 3

By UniProt entry, the sequences of proteins in these tests, tags left out. Residues count along the entry.
UniProt P58022, residues 26-776: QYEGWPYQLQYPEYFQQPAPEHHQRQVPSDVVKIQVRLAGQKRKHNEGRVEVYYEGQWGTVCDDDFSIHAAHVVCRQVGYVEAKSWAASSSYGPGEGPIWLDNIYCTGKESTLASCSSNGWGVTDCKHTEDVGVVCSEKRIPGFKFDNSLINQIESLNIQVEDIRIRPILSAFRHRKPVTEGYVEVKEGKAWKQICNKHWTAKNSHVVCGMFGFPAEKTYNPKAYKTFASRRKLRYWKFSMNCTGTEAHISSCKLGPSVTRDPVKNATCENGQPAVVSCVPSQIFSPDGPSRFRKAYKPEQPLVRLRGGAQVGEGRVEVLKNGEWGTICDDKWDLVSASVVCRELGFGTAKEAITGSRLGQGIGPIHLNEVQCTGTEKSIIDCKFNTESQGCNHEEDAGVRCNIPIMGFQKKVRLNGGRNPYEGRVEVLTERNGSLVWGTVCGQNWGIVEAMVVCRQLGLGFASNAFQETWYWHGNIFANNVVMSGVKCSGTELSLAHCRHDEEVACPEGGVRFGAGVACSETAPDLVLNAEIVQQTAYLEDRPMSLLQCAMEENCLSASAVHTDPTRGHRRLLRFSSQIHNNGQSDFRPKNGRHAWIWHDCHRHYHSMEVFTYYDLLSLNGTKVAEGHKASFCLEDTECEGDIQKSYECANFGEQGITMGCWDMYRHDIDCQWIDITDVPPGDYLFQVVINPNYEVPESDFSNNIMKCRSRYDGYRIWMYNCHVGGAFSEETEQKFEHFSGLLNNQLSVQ
UniProt P59242: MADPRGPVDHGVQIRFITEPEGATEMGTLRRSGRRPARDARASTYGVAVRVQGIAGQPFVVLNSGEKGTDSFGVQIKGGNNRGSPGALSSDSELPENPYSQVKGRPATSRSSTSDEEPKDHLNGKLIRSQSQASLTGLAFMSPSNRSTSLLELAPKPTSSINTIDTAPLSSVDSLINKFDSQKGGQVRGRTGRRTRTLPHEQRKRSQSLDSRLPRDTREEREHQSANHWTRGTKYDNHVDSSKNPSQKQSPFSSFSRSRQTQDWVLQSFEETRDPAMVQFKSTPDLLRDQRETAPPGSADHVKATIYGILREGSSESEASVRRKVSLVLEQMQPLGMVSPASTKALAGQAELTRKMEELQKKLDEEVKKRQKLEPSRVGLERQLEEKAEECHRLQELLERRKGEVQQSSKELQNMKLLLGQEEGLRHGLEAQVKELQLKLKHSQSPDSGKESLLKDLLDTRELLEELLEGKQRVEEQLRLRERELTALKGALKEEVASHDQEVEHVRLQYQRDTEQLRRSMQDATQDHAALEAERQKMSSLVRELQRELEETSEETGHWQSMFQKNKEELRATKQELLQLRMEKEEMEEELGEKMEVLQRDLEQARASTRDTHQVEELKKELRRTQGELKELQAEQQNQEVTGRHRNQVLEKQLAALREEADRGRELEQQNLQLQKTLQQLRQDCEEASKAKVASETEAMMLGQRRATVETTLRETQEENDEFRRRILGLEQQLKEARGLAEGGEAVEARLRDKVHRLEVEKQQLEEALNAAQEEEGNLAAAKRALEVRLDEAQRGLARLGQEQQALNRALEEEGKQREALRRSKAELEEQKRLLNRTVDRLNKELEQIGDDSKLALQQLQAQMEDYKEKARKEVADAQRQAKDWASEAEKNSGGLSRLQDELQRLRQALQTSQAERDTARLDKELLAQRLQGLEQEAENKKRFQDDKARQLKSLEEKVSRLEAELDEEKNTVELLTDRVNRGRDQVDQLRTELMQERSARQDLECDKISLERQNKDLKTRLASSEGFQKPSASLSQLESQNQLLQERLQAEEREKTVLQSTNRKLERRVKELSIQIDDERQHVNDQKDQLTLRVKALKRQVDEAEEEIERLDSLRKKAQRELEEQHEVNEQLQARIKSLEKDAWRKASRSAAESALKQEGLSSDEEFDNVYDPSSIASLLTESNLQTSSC
UniProt Q8R3H7: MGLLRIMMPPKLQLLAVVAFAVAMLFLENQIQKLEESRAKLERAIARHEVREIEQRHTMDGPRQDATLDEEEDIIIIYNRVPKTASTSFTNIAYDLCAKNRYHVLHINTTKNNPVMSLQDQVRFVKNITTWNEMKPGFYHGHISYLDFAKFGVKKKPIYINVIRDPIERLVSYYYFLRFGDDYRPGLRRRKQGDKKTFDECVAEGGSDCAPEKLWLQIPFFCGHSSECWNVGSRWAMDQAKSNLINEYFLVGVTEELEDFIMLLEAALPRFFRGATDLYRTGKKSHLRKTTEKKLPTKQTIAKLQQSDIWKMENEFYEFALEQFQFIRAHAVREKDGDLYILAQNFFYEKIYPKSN

binding, binds:
LOXL2 (from UniProt P58022 26-776)
Cingulin (CGN) (from UniProt P59242 1-1191)
HS2ST1 (from UniProt Q8R3H7 1-356)

Reference: paper PMC10413113
